Source: publication doi:10.1101/2023.08.10.552743
Results are given in words; binding and its absence hold for the method and conditions named. Binding seen in cells or lysates may run through a third protein. A yes stands for co-enrichment or nearness to the bait. Other partners may have been found.

Chains of the proteins cited; added tags and fusions are not shown.
UniProt Q5TA45: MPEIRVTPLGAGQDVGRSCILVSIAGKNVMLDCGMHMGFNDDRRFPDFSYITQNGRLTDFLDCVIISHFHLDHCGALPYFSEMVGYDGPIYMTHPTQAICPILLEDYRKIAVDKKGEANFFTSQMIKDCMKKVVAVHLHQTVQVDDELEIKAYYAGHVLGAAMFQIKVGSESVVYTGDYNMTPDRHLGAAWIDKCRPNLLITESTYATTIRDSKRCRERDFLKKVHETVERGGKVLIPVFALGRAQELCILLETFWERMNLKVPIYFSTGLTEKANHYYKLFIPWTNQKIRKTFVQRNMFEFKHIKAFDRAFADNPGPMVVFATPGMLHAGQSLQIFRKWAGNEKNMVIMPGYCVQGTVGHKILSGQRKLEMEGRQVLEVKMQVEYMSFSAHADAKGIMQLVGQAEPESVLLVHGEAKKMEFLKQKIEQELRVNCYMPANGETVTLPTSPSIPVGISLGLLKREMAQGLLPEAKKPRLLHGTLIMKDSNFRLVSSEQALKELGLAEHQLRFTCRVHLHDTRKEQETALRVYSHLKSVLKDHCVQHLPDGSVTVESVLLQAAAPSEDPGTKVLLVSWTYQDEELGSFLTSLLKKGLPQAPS

Target: Flag-INTS11 (human) (UniProt Q5TA45)
Assay: affinity purification with mass spectrometry

B1: BRAT1 (endogenous, HEK293T) (protein, UniProt Q6PJG6-1 1-821)
chain: MDPECAQLLPALCAVLVDPRQPVADDTCLEKLLDWFKTVTEGESSVVLLQEHPCLVELLSHVLKVQDLSSGVLSFSLRLAGTFAAQENCFQYLQQGELLPGLFGEPGPLGRATWAVPTVRSGWIQGLRSLAQHPSALRFLADHGAVDTIFSLQGDSSLFVASAASQLLVHVLALSMRGGAEGQPCLPGGDWPACAQKIMDHVEESLCSAATPKVTQALNVLTTTFGRCQSPWTEALWVRLSPRVACLLERDPIPAAHSFVDLLLCVARSPVFSSSDGSLWETVARALSCLGPTHMGPLALGILKLEHCPQALRTQAFQVLLQPLACVLKATVQAPGPPGLLDGTADDATTVDTLLASKSSCAGLLCRTLAHLEELQPLPQRPSPWPQASLLGATVTVLRLCDGSAAPASSVGGHLCGTLAGCVRVQRAALDFLGTLSQGTGPQELVTQALAVLLECLESPGSSPTVLKKAFQATLRWLLSSPKTPGCSDLGPLIPQFLRELFPVLQKRLCHPCWEVRDSALEFLTQLSRHWGGQADFRCALLASEVPQLALQLLQDPESYVRASAVTAMGQLSSQGLHAPTSPEHAEARQSLFLELLHILSVDSEGFPRRAVMQVFTEWLRDGHADAAQDTEQFVATVLQAASRDLDWEVRAQGLELALVFLGQTLGPPRTHCPYAVALPEVAPAQPLTEALRALCHVGLFDFAFCALFDCDRPVAQKSCDLLLFLRDKIASYSSLREARGSPNTASAEATLPRWRAGEQAQPPGDQEPEAVLAMLRSLDLEGLRSTLAESSDHVEKSPQSLLQDMLATGGFLQGDEADCY
binding: binds
